Results from patent publication US9314453B2, “Tetrahydropyridoethers for treatment of AMD” (KATAIRO GmbH, priority 2008, dated 2016).

System: RPE melanosomes
Assay: X-ray microanalysis of melanosomes within RPE cells
Type: in vivo, Cynomolgus monkey
Settings: 24 mg/kg/day; versus untreated
Experimental: In order to investigate whether trace element concentration is altered by drug administration, X-ray microanalysis of melanosomes within RPE cells from untreated and drug treated monkeys was performed. In addition melanosomes within macrophages were also analysed.
The concentration of C, Na, P, S, Ca and Fe in RPE melanosomes or in melanosomes from macrophages after drug treatment are presented in atom % as detected by EDX. These findings were compared to the concentrations without treatment. A significant increase of Ca, Na and P was found in RPE melanosomes after treatment. (p=p−values from Student's T-test; n=number of measurements). The animal was treated with 24 mg Soraprazan/kg/day.

SMILES: COCCO[C@@H]1c2ccn3c(C)c(C)nc3c2N[C@H](c2ccccc2)[C@H]1O [Soraprazan, (7R,8R,9R)-2,3-Dimethyl-8-hydroxy-7-(2-methoxyethoxy)-9-phenyl-7,8,9,10-tetrahydro-imidazo[1,2-h][1,7]naphthyridine]
- Fe concentration in RPE melanosomes: statistically insignificant decrease
- Na, P and Ca concentration in RPE melanosomes: increase
